From patent US20030215391A1, “Fluorescent agents for real-time measurement of organ function” (priority 2003, published 2003)

Experiment: Transcutaneous laser-induced fluorescence measurement of dye tissue concentration (feasibility study)
Format: in vivo, Syrian hamsters
Conditions: 10 mg/kg i.v., hamster tongue

In the case of “chloroaluminum sulfonate phthalocyanine [CASPc]”, the “changes in CASPc concentration (from TFM) versus time compared with tissue concentration after extraction” value is reported as “followed the changes in CASPc tissue concentration very closely” and the “correlation between the LIF intensity and CASPc concentration as determined after extraction of the dye” value (excitation 610 nm, fluorescence at 684 nm) is reported as “positive linear correlation”.
